In the data set the test system is SOCS3-Elo B/C. The data set can be described thus: ITC, SOCS3-EloB/C. It counts as binding. The settings on record: single ITC run #30; cell SOCS3 B/C. (In general: ITC needs no label: the signal is the heat of the interaction.)

As to `CC(C)[C@H](NC(=O)[C@@H](NC(=O)[C@@H](NC(=O)[C@H](CO)NC(=O)[C@H](Cc1ccc(OP(=O)(O)O)cc1)NC(=O)[C@H](CCC(=O)O)NC(=O)[C@@H](NC(=O)[C@@H](NC(=O)[C@H](CO)NC(=O)[C@H](C)NC(=O)[C@@H](NC(=O)[C@@H](N)CO)[C@@H](C)O)[C@@H](C)O)C(C)C)[C@@H](C)O)C(C)C)C(=O)N[C@@H](Cc1c[nH]cn1)C(=O)N[C@@H](CO)C(=O)NCC(=O)O` [gp130 pY757], the ΔS was found to be 13.8 cal/mol/deg.
